These are yes or no findings as the source states them, for the method shown. A result given as binding can be weak or reduced; the word gives no strength.

This passage reports binding results from article PMC6085347, “Structural basis for reactivating the mutant TERT promoter by cooperative binding of p52 and ETS1” (Nature Communications, 2018).

One test concerns the target ETS1_(331–441) (human). The experiment in a line: crystal structure; p52-RHD, ETS1_(331–441) and a 15 bp -146C>T TERT promoter DNA mixed 1:1:1; crystals at 18 °C in 100 mM HEPES pH 7.0, 2.0 M ammonium sulfate; both purified.
Test [1] concerns the target Flag-tagged ETS1_(331–441) (human). The experiment in a line: pull-down; Flag-tagged ETS1_(331–441) incubated with the RHD proteins in 50 mM Tris HCl pH 7.4, 150 mM NaCl, 2 h at 4 °C, then held on anti-Flag M2 magnetic beads; eluted with FLAG peptide; SDS-PAGE, Coomassie; both purified.

B1: p52-RHD (residues 35–329) (domain or fragment, human, UniProt Q00653 35-329, looked up)
chain: ADGPYLVIVEQPKQRGFRFRYGCEGPSHGGLPGASSEKGRKTYPTVKICNYEGPAKIEVDLVTHSDPPRAHAHSLVGKQCSELGICAVSVGPKDMTAQFNNLGVLHVTKKNMMGTMIQKLQRQRLRSRPQGLTEAEQRELEQEAKELKKVMDLSIVRLRFSAFLRASDGSFSLPLKPVISQPIHDSKSPGASNLKISRMDKTAGSVRGGDEVYLLCDKVQKDDIEVRFYEDDENGWQAFGDFSPTDVHKQYAIVFRTPPYHKMKIERPVTVFLQLKRKRGGDVSDSKQFTYYPLV
notes: In the crystal only residues 226-328 (p52-DSD) are ordered; two p52-DSD form a homodimer through a crystallographic 2-fold axis; also called WT p52
Take B1: the binding entry (with ETS1_(331–441) (human); in test [1]) was “binds” in each case.

B2: p52-RHD RMK>A (domain or fragment, UniProt Q00653 35-329)
chain: ADGPYLVIVEQPKQRGFRFRYGCEGPSHGGLPGASSEKGRKTYPTVKICNYEGPAKIEVDLVTHSDPPRAHAHSLVGKQCSELGICAVSVGPKDMTAQFNNLGVLHVTKKNMMGTMIQKLQRQRLRSRPQGLTEAEQRELEQEAKELKKVMDLSIVRLRFSAFLRASDGSFSLPLKPVISQPIHDSKSPGASNLKISRMDKTAGSVAGGDEVYLLCDKVQKDDIEVRFYEDDENGWQAFGDFSPTDVHKQYAIVFRTPPYHKAAIERPVTVFLQLKRKRGGDVSDSKQFTYYPLV
Consider B2, for which the binding entry in test [1] is listed as “binds”.

B3: RelB-RHD (residues 111–405) (domain or fragment, UniProt Q01201 111-405)
chain: LGRLVSPAPGPGPQPHLVITEQPKQRGMRFRYECEGRSAGSILGESSTEASKTLPAIELRDCGGLREVEVTACLVWKDWPHRVHPHSLVGKDCTDGICRVRLRPHVSPRHSFNNLGIQCVRKKEIEAAIERKIQLGIDPYNAGSLKNHQEVDMNVVRICFQASYRDQQGQMRRMDPVLSEPVYDKKSTNTSELRICRINKESGPCTGGEELYLLCDKVQKEDISVVFSRASWEGRADFSQADVHRQIAIVFKTPPYEDLEIVEPVTVNVFLQRLTDGVCSEPLPFTYLPRDHDSY
On to B3, for which the binding entry in test [1] was “binds”.
